The supplement of paper PMC10849652
Some of the results follow.

Chains of the proteins cited; added tags and fusions are not shown. Lines headed by an entry give the natural chain unless they say otherwise; changes in a name come on top.
UniProt Q8N4S0: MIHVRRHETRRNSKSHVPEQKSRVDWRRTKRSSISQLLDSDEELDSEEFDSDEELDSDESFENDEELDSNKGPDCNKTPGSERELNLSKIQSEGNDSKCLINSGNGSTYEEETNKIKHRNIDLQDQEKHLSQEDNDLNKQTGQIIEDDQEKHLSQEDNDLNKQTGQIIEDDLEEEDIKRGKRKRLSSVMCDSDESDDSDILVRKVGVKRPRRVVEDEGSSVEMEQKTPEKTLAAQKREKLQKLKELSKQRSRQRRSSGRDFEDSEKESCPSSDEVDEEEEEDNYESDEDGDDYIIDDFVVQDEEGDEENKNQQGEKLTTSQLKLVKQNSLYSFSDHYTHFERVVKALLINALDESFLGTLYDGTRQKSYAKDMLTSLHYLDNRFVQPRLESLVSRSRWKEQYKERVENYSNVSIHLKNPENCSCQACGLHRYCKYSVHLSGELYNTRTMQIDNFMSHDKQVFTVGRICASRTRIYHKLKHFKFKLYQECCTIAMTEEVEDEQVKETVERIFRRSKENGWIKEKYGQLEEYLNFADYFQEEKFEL
UniProt Q9H6F5: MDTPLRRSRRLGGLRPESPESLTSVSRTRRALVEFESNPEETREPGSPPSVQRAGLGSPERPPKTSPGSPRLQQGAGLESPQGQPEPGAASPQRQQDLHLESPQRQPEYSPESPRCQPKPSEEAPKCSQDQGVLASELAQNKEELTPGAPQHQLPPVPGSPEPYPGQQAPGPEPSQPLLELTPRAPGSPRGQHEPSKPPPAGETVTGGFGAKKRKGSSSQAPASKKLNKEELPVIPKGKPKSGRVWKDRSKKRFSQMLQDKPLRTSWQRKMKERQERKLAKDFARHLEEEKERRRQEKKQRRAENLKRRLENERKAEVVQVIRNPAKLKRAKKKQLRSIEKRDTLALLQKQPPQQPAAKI
UniProt Q96S94: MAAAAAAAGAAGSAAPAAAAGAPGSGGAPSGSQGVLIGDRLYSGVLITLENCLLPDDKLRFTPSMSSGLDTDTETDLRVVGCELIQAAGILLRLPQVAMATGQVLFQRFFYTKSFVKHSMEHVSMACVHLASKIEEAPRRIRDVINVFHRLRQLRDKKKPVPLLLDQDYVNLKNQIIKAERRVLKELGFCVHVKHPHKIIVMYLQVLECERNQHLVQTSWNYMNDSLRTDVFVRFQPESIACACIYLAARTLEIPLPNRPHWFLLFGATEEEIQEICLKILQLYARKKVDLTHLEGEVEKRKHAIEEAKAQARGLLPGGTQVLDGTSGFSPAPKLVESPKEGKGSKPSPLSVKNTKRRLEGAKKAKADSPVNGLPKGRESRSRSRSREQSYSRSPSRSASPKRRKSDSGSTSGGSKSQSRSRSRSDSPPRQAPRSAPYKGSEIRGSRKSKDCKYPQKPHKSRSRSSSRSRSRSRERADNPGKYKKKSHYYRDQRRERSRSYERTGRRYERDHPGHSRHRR
UniProt P50991: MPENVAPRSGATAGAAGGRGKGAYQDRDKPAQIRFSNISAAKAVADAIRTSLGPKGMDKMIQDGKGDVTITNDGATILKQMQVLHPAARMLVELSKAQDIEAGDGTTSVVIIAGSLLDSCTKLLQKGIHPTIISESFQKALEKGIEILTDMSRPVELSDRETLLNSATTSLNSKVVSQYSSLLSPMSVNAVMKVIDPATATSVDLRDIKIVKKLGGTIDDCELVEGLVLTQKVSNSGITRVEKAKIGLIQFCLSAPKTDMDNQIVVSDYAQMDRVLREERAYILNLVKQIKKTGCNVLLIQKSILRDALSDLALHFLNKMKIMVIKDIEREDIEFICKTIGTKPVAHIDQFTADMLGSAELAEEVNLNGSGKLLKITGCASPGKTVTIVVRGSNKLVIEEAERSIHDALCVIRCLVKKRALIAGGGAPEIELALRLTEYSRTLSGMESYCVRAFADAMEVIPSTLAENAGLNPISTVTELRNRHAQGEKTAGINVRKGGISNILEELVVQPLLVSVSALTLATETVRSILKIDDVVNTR
UniProt Q6PK04: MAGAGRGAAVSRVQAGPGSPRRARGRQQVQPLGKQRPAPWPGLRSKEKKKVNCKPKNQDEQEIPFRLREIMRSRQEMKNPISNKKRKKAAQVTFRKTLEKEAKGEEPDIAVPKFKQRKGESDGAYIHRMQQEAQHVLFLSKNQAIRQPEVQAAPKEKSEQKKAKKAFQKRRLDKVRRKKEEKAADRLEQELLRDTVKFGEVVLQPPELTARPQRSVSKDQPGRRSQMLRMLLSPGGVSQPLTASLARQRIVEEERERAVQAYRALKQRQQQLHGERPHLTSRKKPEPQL
UniProt Q92851: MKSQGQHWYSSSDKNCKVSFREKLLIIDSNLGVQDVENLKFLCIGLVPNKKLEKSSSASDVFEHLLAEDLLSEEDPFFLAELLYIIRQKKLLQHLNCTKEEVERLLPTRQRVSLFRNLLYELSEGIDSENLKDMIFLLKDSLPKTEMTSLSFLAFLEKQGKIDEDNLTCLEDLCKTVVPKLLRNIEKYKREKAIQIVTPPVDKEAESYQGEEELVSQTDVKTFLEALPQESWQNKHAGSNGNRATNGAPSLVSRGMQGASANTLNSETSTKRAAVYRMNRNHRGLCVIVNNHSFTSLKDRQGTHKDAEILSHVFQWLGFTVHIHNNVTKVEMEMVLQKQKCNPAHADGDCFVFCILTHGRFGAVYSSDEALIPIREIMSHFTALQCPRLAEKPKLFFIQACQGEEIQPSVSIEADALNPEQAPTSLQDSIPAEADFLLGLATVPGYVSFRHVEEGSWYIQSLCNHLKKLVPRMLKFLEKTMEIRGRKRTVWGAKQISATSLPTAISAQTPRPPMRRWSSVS
UniProt Q9HA77: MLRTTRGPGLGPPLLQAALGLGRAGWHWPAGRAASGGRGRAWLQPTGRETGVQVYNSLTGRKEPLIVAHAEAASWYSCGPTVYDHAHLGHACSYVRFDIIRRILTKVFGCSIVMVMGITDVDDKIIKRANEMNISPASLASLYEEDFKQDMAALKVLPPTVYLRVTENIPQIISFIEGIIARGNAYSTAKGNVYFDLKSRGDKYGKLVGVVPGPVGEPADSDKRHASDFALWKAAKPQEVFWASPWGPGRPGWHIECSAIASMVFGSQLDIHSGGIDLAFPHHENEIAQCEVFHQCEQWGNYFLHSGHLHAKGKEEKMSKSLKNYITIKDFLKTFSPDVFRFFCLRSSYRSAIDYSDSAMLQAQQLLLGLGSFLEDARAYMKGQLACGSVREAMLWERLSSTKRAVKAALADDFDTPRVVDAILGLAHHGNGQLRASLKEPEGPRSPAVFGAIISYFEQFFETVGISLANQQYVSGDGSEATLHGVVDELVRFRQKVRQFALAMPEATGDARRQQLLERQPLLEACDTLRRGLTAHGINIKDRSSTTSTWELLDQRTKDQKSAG
UniProt Q13191, whole entry, looked up: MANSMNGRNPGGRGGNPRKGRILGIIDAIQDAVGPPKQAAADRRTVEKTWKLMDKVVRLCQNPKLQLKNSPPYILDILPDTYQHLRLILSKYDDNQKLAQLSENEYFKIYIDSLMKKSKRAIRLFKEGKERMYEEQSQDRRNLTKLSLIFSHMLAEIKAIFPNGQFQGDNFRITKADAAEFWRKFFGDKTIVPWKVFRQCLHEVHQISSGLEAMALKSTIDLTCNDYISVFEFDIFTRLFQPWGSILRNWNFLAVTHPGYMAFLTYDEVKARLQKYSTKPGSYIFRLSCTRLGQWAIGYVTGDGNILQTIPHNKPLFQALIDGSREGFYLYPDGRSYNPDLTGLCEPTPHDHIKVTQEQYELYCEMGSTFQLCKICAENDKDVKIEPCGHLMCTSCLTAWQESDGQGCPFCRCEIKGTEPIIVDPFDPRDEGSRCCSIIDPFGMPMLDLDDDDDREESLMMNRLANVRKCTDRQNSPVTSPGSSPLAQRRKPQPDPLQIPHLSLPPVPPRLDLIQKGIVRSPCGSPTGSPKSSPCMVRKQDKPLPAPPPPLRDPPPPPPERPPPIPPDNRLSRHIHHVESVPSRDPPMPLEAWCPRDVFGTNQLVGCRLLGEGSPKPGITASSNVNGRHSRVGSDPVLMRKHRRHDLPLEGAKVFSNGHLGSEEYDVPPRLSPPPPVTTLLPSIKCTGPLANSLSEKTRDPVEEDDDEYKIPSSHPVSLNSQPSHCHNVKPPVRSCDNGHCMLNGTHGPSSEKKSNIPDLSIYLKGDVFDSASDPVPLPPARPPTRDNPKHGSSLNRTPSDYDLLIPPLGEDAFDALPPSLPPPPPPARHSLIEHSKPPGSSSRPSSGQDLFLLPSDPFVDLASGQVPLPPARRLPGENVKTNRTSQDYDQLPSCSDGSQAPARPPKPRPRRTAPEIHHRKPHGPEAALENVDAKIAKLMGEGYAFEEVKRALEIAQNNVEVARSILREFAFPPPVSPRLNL
UniProt Q96NT0: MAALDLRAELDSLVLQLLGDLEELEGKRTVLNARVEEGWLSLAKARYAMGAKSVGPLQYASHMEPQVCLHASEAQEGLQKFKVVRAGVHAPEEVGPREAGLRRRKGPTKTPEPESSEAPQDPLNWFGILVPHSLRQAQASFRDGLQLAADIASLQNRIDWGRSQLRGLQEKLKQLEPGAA
UniProt Q9Y3X0: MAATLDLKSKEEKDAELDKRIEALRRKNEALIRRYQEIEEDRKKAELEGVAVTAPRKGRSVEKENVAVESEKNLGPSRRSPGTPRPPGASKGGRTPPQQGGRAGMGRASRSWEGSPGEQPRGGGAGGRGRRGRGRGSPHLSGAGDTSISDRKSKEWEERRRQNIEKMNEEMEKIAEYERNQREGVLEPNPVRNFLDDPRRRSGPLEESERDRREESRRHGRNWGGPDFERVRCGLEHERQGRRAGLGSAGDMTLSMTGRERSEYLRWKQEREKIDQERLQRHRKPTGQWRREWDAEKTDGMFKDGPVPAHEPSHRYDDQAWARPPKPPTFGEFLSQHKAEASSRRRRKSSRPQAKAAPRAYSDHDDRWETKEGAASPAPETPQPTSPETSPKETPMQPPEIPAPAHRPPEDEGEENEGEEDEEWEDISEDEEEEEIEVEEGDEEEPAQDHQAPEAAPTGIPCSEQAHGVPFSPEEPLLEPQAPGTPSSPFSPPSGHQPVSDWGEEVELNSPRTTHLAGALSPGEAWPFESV
UniProt P83916, whole entry, looked up: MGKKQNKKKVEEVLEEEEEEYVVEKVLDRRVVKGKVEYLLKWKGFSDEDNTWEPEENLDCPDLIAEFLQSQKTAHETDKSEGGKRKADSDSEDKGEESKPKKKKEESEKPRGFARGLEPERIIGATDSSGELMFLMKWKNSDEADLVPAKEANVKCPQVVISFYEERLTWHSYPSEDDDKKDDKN
UniProt P49589: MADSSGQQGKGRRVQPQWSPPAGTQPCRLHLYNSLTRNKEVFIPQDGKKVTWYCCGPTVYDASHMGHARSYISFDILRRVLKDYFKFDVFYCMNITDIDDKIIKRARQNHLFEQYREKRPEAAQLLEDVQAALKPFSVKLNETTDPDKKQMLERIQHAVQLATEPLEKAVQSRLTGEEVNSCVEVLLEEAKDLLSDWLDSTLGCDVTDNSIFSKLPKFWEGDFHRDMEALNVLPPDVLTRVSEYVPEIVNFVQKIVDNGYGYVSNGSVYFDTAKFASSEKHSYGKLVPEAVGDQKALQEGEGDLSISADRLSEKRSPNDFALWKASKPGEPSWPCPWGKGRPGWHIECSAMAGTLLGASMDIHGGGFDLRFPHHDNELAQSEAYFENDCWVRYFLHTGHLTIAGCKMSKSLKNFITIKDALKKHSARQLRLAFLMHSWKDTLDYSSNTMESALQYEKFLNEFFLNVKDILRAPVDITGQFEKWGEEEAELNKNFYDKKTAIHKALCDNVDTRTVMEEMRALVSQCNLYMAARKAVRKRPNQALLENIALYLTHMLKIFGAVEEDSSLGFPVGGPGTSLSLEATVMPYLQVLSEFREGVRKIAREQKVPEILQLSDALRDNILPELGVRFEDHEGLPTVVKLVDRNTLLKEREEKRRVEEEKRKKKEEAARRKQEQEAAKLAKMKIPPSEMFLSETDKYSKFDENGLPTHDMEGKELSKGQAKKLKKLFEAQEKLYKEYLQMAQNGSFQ
UniProt O95273: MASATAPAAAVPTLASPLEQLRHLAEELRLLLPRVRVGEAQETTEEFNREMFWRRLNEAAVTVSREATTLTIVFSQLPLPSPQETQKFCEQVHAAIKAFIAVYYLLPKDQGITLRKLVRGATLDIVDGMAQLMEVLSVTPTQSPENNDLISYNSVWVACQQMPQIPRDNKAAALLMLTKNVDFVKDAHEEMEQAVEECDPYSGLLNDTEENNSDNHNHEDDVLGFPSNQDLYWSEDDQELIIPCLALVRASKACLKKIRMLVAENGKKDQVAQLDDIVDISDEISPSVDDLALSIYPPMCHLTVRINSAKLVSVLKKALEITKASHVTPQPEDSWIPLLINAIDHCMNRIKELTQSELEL
UniProt Q8IWP9: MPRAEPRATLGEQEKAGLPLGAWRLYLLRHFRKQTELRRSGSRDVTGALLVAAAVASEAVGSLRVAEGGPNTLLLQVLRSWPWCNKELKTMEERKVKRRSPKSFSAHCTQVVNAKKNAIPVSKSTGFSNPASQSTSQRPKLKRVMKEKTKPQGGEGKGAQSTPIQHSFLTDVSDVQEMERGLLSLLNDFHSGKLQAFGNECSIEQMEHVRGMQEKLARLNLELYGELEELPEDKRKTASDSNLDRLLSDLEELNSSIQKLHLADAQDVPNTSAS

Assays:
Test in all cases: log2 fold change, soluble protein after heating vs DMSO (PISA); higher = thermal stabilisation; K562 lysate, 10 uM; active = over 0.2 and 3.5 SD of the protein, either way, in both replicates (recomputed)
erlotinib = compound: C#Cc1cccc(Nc2ncnc3cc(OCCOC)c(OCCOC)cc23)c1 [erlotinib]
How it was run: (§1)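 Log-two fold change in thermal stability relative to solvent controls is reported from duplicates. For each sample, crude K562 extract from dounce-homogenised pellets in PBS pH 7.4 with 1 mM MgCl2, at 1 mg/mL protein, was treated with 10 μM compound for 30 min. Aliquots heated for 3 min across 48°C-58°C were pooled, brought to 0.5% NP-40 at 4°C and cleared at 21,000xg for 90 min. The supernatant was quantified by TMTpro 16plex LC-MS/MS with channel sums equalised.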

[1] = compound: C/C(=N\NC(=O)C1=CC(=CC=C1)S(=O)(=O)N2CCOCC2)/C3=C(C=CC(=C3)Cl)O
How it was run: as §1

[2] = compound: C1=CC(=CC=C1C2=NC3=C(N2)C=C(C=C3)C(=O)N)OC4=CC=C(C=C4)Cl
How it was run: as §1

[3] = compound: C1=CC2=C(C=CC(=C2)/C=C\3/C(=O)NC(=NCC4=CC=CS4)S3)N=C1
How it was run: as §1

[4] = compound: C1=CC2=NC=CN=C2C=C1/C=C/3\C(=O)NC(=O)S3
How it was run: as §1

[5] = compound: C1=CC=C(C=C1)C2=NC(=C(N2)C3=CC=NC=C3)C4=CC(=C(C=C4)Cl)O
How it was run: as §1

[6] = compound: C1=CC=C2C(=C1)C3=NNC4=CC=CC(=C43)C2=O
How it was run: as §1

[7] = compound: C1CCN(C1)C(=O)NC2=CC=CC(=C2)NC3=NC=C(C(=N3)NCCC4=CN=CN4)Br
How it was run: as §1

[8] = compound: C1CN(CCC1(CC2=CC=C(C=C2)Cl)N)C3=NC=NC4=C3C=CN4
How it was run: as §1

IRAK-1-4 Inhibitor I = compound: C1COCCN1CCN2C3=CC=CC=C3N=C2NC(=O)C4=CC(=CC=C4)[N+](=O)[O-] [IRAK-1-4 Inhibitor I]
How it was run: as §1

ibrutinib = compound: C=CC(=O)N1CCC[C@@H](n2nc(-c3ccc(Oc4ccccc4)cc3)c3c(N)ncnc32)C1 [ibrutinib]
How it was run: as §1

[9] = compound: CC(=O)c1cnc2ccc(-c3cc(Cl)c(O)c(Cl)c3)nc2c1N[C@H]1CC[C@H](CN(C)C)CC1
How it was run: as §1

ralimetinib = compound: CC(C)(C)Cn1c(N)nc2ccc(-c3[nH]c(C(C)(C)C)nc3-c3ccc(F)cc3)nc21 [ralimetinib]
How it was run: as §1

[10] = compound: CC(C)(O)CC(=O)NCCn1ccc2ncnc(Nc3ccc(Oc4cccc(C(F)(F)F)c4)c(Cl)c3)c21
How it was run: as §1

[11] = compound: CC(C)C1=C2N=C(C=C(N2N=C1)NCC3=CC=CC=C3)NCCCCCCN
How it was run: as §1

[12] = compound: CC1=C(C(CC(=O)N1)C2=CC=C(C=C2)C(F)(F)F)C(=O)NC3=C(C=C4C(=C3)C=NN4)F
How it was run: as §1

[13] = compound: CC1=C(C2=C(C=C1)C(=O)C3=CC=CC=C3N2CCCN)C
How it was run: as §1

[14] = compound: CC1=C(C=C(C=C1)NC(=O)C2=CC(=CC=C2)C(C)(C)C#N)NC3=CC4=C(C=C3)N=CN(C4=O)C
How it was run: as §1

[15] = compound: CC1=C(C=C(C=C1)NC(=O)C2=CC(=CC=C2)N(C)C)NC(=O)C3=CC=C(C=C3)O
How it was run: as §1

[16] = compound: CC1=CC=C(C=C1)SC2=C3C=C(SC3=CN=C2)C(=O)N
How it was run: as §1

Measured: log2 fold change

CCDC82 (UniProt Q8N4S0)
inactive: erlotinib -0.01 | [1] -0.018 | [2] 0.076 | [3] 0.07 | [4] 0.076 | [5] 0.005 | [6] 0.032 | [7] 0.001 | [8] 0.038 | IRAK-1-4 Inhibitor I -0.106 | ibrutinib -0.064 | [9] 0.086 | ralimetinib 0.048 | [10] -0.079 | [11] -0.017 | [12] 0.028 | [13] 0.001 | [14] -0.029 | [15] 0.013 | [16] -0.159

CCDC86 (UniProt Q9H6F5)
inactive: erlotinib -0.026 | [1] -0.093 | [2] -0.011 | [3] 0.008 | [4] 0.005 | [5] 0.02 | [6] 0.002 | [7] 0.02 | [8] 0.024 | IRAK-1-4 Inhibitor I 0.033 | ibrutinib -0.01 | [9] -0.036 | ralimetinib -0.027 | [10] -0.039 | [11] 0.024 | [12] -0.054 | [13] -0.052 | [14] 0.001 | [15] -0.027 | [16] -0.016

CCNL2 (UniProt Q96S94)
inactive: erlotinib -0.002 | [1] -0.049 | [2] -0.006 | [3] -0.042 | [4] 0.069 | [5] 0.037 | [6] -0.121 | [7] 0.055 | [8] -0.07 | IRAK-1-4 Inhibitor I 0.01 | ibrutinib 0.034 | [9] 0.008 | ralimetinib -0.042 | [10] -0.046 | [11] 0.059 | [12] -0.016 | [13] -0.047 | [14] -0.028 | [15] 0.015 | [16] -0.024

CCNH (UniProt P51946)
inactive: erlotinib 0.018 | [1] -0.018 | [2] 0.074 | [3] -0.055 | [4] -0.029 | [5] 0 | [6] -0.021 | [7] -0.047 | [8] 0.012 | IRAK-1-4 Inhibitor I -0.005 | ibrutinib 0.018 | [9] -0.149 | ralimetinib -0.001 | [10] -0.064 | [11] -0.058 | [12] -0.044 | [13] -0.025 | [14] -0.044 | [15] 0.018 | [16] -0.016

CCT4 (UniProt P50991)
inactive: erlotinib -0.015 | [1] -0.038 | [2] -0.002 | [3] -0.01 | [4] -0.007 | [5] -0.008 | [6] 0.05 | [7] 0.013 | [8] -0.038 | IRAK-1-4 Inhibitor I -0.015 | ibrutinib 0.005 | [9] 0.015 | ralimetinib 0.01 | [10] 0.019 | [11] -0.028 | [12] 0.002 | [13] -0.01 | [14] -0.012 | [15] -0.017 | [16] 0.018

CCDC137 (UniProt Q6PK04)
inactive: erlotinib -0.056 | [1] -0.261 | [2] -0.041 | [3] 0.045 | [4] -0.039 | [5] -0.029 | [6] 0.018 | [7] 0 | [8] 0.011 | IRAK-1-4 Inhibitor I 0.033 | ibrutinib 0.126 | [9] -0.041 | ralimetinib -0.025 | [10] 0.011 | [11] 0.067 | [12] 0.097 | [13] 0.014 | [14] -0.028 | [15] -0.066 | [16] 0.019

CASP10 isoform 4 (UniProt Q92851)
inactive: erlotinib 0.008 | [1] 0.033 | [2] -0.01 | [3] -0.016 | [4] -0.001 | [5] 0.039 | [6] -0.006 | [7] 0.002 | [8] 0.012 | IRAK-1-4 Inhibitor I -0.018 | ibrutinib 0.013 | [9] 0.005 | ralimetinib 0.027 | [10] -0.02 | [11] 0.001 | [12] 0.042 | [13] 0.025 | [14] 0.004 | [15] -0.001 | [16] 0.028

CARS2 (UniProt Q9HA77)
inactive: erlotinib -0.11 | [1] -0.021 | [2] 0.055 | [3] -0.029 | [4] -0.001 | [5] -0.068 | [6] 0.008 | [7] -0.041 | [8] -0.04 | IRAK-1-4 Inhibitor I -0.022 | ibrutinib -0.015 | [9] -0.034 | ralimetinib 0.005 | [10] 0.013 | [11] -0.048 | [12] 0.014 | [13] -0.002 | [14] 0.058 | [15] 0.028 | [16] 0.026

CBLB (UniProt Q13191)
inactive: erlotinib 0.018 | [1] -0.015 | [2] 0.01 | [3] 0.089 | [4] -0.018 | [5] 0.169 | [6] 0 | [7] 0.002 | [8] 0.083 | IRAK-1-4 Inhibitor I -0.072 | ibrutinib 0.003 | [9] 0.005 | ralimetinib -0.008 | [10] -0.026 | [11] -0.015 | [12] 0.079 | [13] -0.052 | [14] 0.075 | [15] 0.159 | [16] -0.014

CCDC115 (UniProt Q96NT0)
inactive: erlotinib 0.023 | [1] 0.008 | [2] -0.012 | [3] 0.041 | [4] -0.032 | [5] -0.022 | [6] -0.074 | [7] 0.042 | [8] 0.011 | IRAK-1-4 Inhibitor I 0.014 | ibrutinib 0.129 | [9] -0.024 | ralimetinib -0.037 | [10] -0.026 | [11] 0.058 | [12] 0 | [13] -0.023 | [14] 0.025 | [15] 0.048 | [16] -0.011

CCDC9 (UniProt Q9Y3X0)
inactive: erlotinib 0 | [1] 0.03 | [2] 0.034 | [3] 0.03 | [4] -0.022 | [5] 0.016 | [6] 0.007 | [7] 0.021 | [8] -0.038 | IRAK-1-4 Inhibitor I 0.004 | ibrutinib 0.065 | [9] -0.006 | ralimetinib 0.001 | [10] -0.014 | [11] -0.013 | [12] -0.071 | [13] -0.051 | [14] 0.009 | [15] -0.02 | [16] -0.013

CBX1 (UniProt P83916)
inactive: erlotinib -0.012 | [1] -0.158 | [2] -0.012 | [3] -0.006 | [4] 0.03 | [5] -0.017 | [6] 0.017 | [7] 0.008 | [8] 0.03 | IRAK-1-4 Inhibitor I 0.029 | ibrutinib -0.002 | [9] 0.021 | ralimetinib -0.006 | [10] -0.023 | [11] -0.039 | [12] -0.033 | [13] -0.024 | [14] 0.007 | [15] -0.003 | [16] -0.046

CARS isoform 3 (UniProt P49589)
inactive: erlotinib 0.008 | [1] -0.029 | [2] 0.018 | [3] -0.018 | [4] -0.006 | [5] 0.022 | [6] -0.032 | [7] -0.024 | [8] 0.015 | IRAK-1-4 Inhibitor I 0.001 | ibrutinib -0.012 | [9] 0.015 | ralimetinib -0.016 | [10] 0.033 | [11] -0.016 | [12] -0.001 | [13] 0.015 | [14] -0.032 | [15] 0.009 | [16] 0.016

CCNDBP1 (UniProt O95273)
inactive: erlotinib 0 | [1] 0.058 | [2] -0.05 | [3] -0.133 | [4] -0.011 | [5] 0.003 | [6] 0.113 | [7] -0.007 | [8] 0.055 | IRAK-1-4 Inhibitor I -0.01 | ibrutinib -0.032 | [9] 0.039 | ralimetinib -0.02 | [10] 0.015 | [11] -0.018 | [12] 0.011 | [13] -0.061 | [14] -0.009 | [15] -0.007 | [16] -0.019

CCDC97 (UniProt Q96F63)
inactive: erlotinib 0.052 | [1] -0.075 | [2] 0.033 | [3] 0.03 | [4] 0.035 | [5] 0.011 | [6] 0.001 | [7] 0.021 | [8] 0.014 | IRAK-1-4 Inhibitor I 0 | ibrutinib 0.023 | [9] 0.088 | ralimetinib -0.011 | [10] -0.035 | [11] 0.001 | [12] -0.012 | [13] 0.02 | [14] -0.027 | [15] 0.017 | [16] 0.048

CCDC28A (UniProt Q8IWP9)
inactive: erlotinib -0.046 | [1] -0.175 | [2] 0.02 | [3] 0.069 | [4] -0.067 | [5] 0.032 | [6] -0.036 | [7] 0.011 | [8] -0.014 | IRAK-1-4 Inhibitor I 0.012 | ibrutinib 0.05 | [9] 0.054 | ralimetinib -0.031 | [10] -0.031 | [11] 0.013 | [12] -0.069 | [13] -0.006 | [14] 0.069 | [15] -0.019 | [16] -0.066

3 neighbouring entries already listed, quoted:
CCNDBP1 (UniProt O95273)
inactive: erlotinib 0 | [1] 0.058 | [2] -0.05 | [3] -0.133 | [4] -0.011 | [5] 0.003 | [6] 0.113 | [7] -0.007 | [8] 0.055 | IRAK-1-4 Inhibitor I -0.01 | ibrutinib -0.032 | [9] 0.039 | ralimetinib -0.02 | [10] 0.015 | [11] -0.018 | [12] 0.011 | [13] -0.061 | [14] -0.009 | [15] -0.007 | [16] -0.019

CCDC97 (UniProt Q96F63)
inactive: erlotinib 0.052 | [1] -0.075 | [2] 0.033 | [3] 0.03 | [4] 0.035 | [5] 0.011 | [6] 0.001 | [7] 0.021 | [8] 0.014 | IRAK-1-4 Inhibitor I 0 | ibrutinib 0.023 | [9] 0.088 | ralimetinib -0.011 | [10] -0.035 | [11] 0.001 | [12] -0.012 | [13] 0.02 | [14] -0.027 | [15] 0.017 | [16] 0.048

CCDC28A (UniProt Q8IWP9)
inactive: erlotinib -0.046 | [1] -0.175 | [2] 0.02 | [3] 0.069 | [4] -0.067 | [5] 0.032 | [6] -0.036 | [7] 0.011 | [8] -0.014 | IRAK-1-4 Inhibitor I 0.012 | ibrutinib 0.05 | [9] 0.054 | ralimetinib -0.031 | [10] -0.031 | [11] 0.013 | [12] -0.069 | [13] -0.006 | [14] 0.069 | [15] -0.019 | [16] -0.066
